Test results reported in patent US20030232742A1 (priority 2000, published 2003).

Assay: general procedure: Fmoc solid-phase peptide synthesis; H-Pro-2-chlorotritylchloride-resin; DIC/HOBt

Substance	final HPLC purity (coupling step)	final HPLC purity (whole synthesis, scale of the general procedure 200 mg resin, 0.158)
Pyridin-3-ylmethoxycarbonyl-Pro-Ala-Gly-Pro-MNA (PAGP; N-3-pyridylmethyloxycarbonyl; C-terminal MNA; printed: Pro-Ala-Gly-Pro-)	HPLC>95%	–
Pyridin-3-ylmethoxycarbonyl-Pro-Ala-Gly-Pro-OH	–	HPLC >95%
